# Test results: paper PMC8486843, “SPOP mutation induces replication over-firing by impairing Geminin ubiquitination and triggers replication catastrophe upon ATR inhibition” (Nature Communications, 2021)
# Amino acid sequences for entries named in this document (tags omitted).
# UniProt O43791: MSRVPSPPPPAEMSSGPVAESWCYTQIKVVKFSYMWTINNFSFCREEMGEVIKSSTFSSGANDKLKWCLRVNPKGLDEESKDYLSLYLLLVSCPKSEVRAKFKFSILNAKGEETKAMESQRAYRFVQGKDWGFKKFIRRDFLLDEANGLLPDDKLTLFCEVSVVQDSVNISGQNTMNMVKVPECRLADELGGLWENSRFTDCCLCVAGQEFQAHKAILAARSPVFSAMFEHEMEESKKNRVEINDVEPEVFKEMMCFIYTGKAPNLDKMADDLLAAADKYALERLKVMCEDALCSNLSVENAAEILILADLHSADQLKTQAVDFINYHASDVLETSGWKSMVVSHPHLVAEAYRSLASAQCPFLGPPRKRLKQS
# These are yes or no findings as the source states them, for the method shown. Binding seen in cells or lysates may run through a third protein. These calls come from enrichment with a bait or labelling near it, and not all partners need be listed. For some assays here: Tags and fused reporters may be left off the sequences shown.
# T1: Flag-Geminin (human) (UniProt O75496)
# T1 sequence: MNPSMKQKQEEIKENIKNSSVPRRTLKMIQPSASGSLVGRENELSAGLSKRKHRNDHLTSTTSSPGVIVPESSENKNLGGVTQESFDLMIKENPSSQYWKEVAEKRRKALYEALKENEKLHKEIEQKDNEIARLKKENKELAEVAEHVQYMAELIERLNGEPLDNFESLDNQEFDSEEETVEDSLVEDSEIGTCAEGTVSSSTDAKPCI
# What was measured:
# Flag-Geminin (human) = target: T1, Flag-Geminin (human); assay: affinity purification with mass spectrometry; 293T cells transfected with Flag-Geminin in the presence or absence of HA-Ub and Myc-SPOP; co-IP samples subjected to LC-MS (n = 1/group)
# SFB-SPOP (human) = SFB-SPOP (human) (UniProt O43791); assay: affinity purification with mass spectrometry; SFB-SPOP in 293T cells (DMSO, MMC, CPT, cisplatin or etoposide); NETN lysis buffer; tandem affinity purification on streptavidin beads and S tag beads, LC-MS
binding (Flag-Geminin (human)),binding (SFB-SPOP (human)),Binder
binds,–,"Cdt1 (protein, UniProt Q9H211 1-546) MEQRRVTDFFARRRPGPPRIAPPKLACRTPSPARPALRAPASATSGSRKRARPPAAPGRDQARPPARRRLRLSVDEVSSPSTPEAPDIPACPSPGQKIKKSTPAAGQPPHLTSAQDQDTISELASCLQRARELGARVRALKASAQDAGESCTPEAEGRPEEPCGEKAPAYQRFHALAQPGLPGLVLPYKYQVLAEMFRSMDTIVGMLHNRSETPTFAKVQRGVQDMMRRRFEECNVGQIKTVYPASYRFRQERSVPTFKDGTRRSDYQLTIEPLLEQEADGAAPQLTASRLLQRRQIFSQKLVEHVKEHHKAFLASLSPAMVVPEDQLTRWHPRFNVDEVPDIEPAALPQPPATEKLTTAQEVLARARNLISPRMEKALSQLALRSAAPSSPGSPRPALPATPPATPPAASPSALKGVSQDLLERIRAKEAQKQLAQMTRCPEQEQRLQRLERLPELARVLRSVFVSERKPALSMEVACARMVGSCCTIMSPGEMEKHLLLLSELLPDWLSLHRIRTDTYVKLDKAADLAHITARLAHQTRAEEGL"
–,binds,"endogenous Geminin (protein, UniProt O75496 1-209) MNPSMKQKQEEIKENIKNSSVPRRTLKMIQPSASGSLVGRENELSAGLSKRKHRNDHLTSTTSSPGVIVPESSENKNLGGVTQESFDLMIKENPSSQYWKEVAEKRRKALYEALKENEKLHKEIEQKDNEIARLKKENKELAEVAEHVQYMAELIERLNGEPLDNFESLDNQEFDSEEETVEDSLVEDSEIGTCAEGTVSSSTDAKPCI"
